Paper PMC8170790
Results are given in words; binding and its absence hold for the method and conditions named. For some assays here: In cells and extracts the contact can be indirect. Some entries that bind do so weakly or less than the wild type. For some assays here: Where a sequence is shown, tags or fusion partners need not be part of it. Each block holds one molecule with its values, some of them ahead of it.

Amino acid sequences for entries named in this document (tags omitted).
UniProt P22736: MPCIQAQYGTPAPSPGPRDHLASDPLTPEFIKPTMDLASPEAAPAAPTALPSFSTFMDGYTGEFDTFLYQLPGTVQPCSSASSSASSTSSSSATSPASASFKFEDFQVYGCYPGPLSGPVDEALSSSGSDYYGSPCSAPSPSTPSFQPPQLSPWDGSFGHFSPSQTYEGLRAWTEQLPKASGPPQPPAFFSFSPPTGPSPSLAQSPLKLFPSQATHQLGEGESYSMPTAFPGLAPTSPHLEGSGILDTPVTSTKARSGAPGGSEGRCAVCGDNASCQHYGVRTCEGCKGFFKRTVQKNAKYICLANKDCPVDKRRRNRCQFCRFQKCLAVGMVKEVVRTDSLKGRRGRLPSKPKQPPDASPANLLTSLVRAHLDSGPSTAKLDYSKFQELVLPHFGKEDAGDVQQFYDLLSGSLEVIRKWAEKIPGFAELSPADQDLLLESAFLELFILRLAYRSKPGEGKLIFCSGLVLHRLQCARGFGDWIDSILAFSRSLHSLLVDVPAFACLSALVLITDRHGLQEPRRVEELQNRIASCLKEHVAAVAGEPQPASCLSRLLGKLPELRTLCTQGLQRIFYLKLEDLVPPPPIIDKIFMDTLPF
UniProt Q99942: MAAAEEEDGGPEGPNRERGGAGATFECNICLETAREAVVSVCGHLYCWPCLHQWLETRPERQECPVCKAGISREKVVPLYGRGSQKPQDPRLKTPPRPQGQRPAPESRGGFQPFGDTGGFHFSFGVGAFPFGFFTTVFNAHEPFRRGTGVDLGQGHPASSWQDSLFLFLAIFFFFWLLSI

How the values were obtained:
TM4 (UBAC2) = biological target: T1, TM4 (UBAC2) (UniProt Q8NBM4); assay: two-hybrid; yeast two-hybrid screening for TM4-interacting proteins; library and vectors not told
T1 sequence: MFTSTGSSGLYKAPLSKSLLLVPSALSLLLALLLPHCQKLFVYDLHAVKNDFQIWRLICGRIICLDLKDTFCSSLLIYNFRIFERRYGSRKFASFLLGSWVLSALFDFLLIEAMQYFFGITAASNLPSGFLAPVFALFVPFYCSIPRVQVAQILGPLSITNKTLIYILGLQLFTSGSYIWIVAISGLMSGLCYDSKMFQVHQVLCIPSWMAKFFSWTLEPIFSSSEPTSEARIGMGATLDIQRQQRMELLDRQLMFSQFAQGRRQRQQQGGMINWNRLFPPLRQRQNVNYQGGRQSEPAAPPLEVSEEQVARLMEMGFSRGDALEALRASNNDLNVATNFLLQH

[1] = biological target: Nur77 (overexpressed in Hela cells) (UniProt P22736); assay: co-IP; Hela cells transfected with the Nur77 plasmid, harvested 48 h later, IP lysis buffer, Nur77 antibodies, Protein A/G beads; western blot for TM4
[2] = biological target: recombinant Nur77 protein obtained from prokaryotic expression (UniProt P22736); assay: pull-down; lysates of eukaryotic cells overexpressing EGFP-C2-TM4 or Flag-TM4 (48 h) incubated with recombinant Nur77 from prokaryotic expression; eluted; blot with GFP and flag antibodies; only the target purified

binding (TM4 (UBAC2)): binds
B1: USP-19 (protein, UniProt O94966 1-1318)
chain: MSGGASATGPRRGPPGLEDTTSKKKQKDRANQESKDGDPRKETGSRYVAQAGLEPLASGDPSASASHAAGITGSRHRTRLFFPSSSGSASTPQEEQTKEGACEDPHDLLATPTPELLLDWRQSAEEVIVKLRVGVGPLQLEDVDAAFTDTDCVVRFAGGQQWGGVFYAEIKSSCAKVQTRKGSLLHLTLPKKVPMLTWPSLLVEADEQLCIPPLNSQTCLLGSEENLAPLAGEKAVPPGNDPVSPAMVRSRNPGKDDCAKEEMAVAADAATLVDEPESMVNLAFVKNDSYEKGPDSVVVHVYVKEICRDTSRVLFREQDFTLIFQTRDGNFLRLHPGCGPHTTFRWQVKLRNLIEPEQCTFCFTASRIDICLRKRQSQRWGGLEAPAARVGGAKVAVPTGPTPLDSTPPGGAPHPLTGQEEARAVEKDKSKARSEDTGLDSVATRTPMEHVTPKPETHLASPKPTCMVPPMPHSPVSGDSVEEEEEEEKKVCLPGFTGLVNLGNTCFMNSVIQSLSNTRELRDFFHDRSFEAEINYNNPLGTGGRLAIGFAVLLRALWKGTHHAFQPSKLKAIVASKASQFTGYAQHDAQEFMAFLLDGLHEDLNRIQNKPYTETVDSDGRPDEVVAEEAWQRHKMRNDSFIVDLFQGQYKSKLVCPVCAKVSITFDPFLYLPVPLPQKQKVLPVFYFAREPHSKPIKFLVSVSKENSTASEVLDSLSQSVHVKPENLRLAEVIKNRFHRVFLPSHSLDTVSPSDTLLCFELLSSELAKERVVVLEVQQRPQVPSVPISKCAACQRKQQSEDEKLKRCTRCYRVGYCNQLCQKTHWPDHKGLCRPENIGYPFLVSVPASRLTYARLAQLLEGYARYSVSVFQPPFQPGRMALESQSPGCTTLLSTGSLEAGDSERDPIQPPELQLVTPMAEGDTGLPRVWAAPDRGPVPSTSGISSEMLASGPIEVGSLPAGERVSRPEAAVPGYQHPSEAMNAHTPQFFIYKIDSSNREQRLEDKGDTPLELGDDCSLALVWRNNERLQEFVLVASKELECAEDPGSAGEAARAGHFTLDQCLNLFTRPEVLAPEEAWYCPQCKQHREASKQLLLWRLPNVLIVQLKRFSFRSFIWRDKINDLVEFPVRNLDLSKFCIGQKEEQLPSYDLYAVINHYGGMIGGHYTACARLPNDRSSQRSDVGWRLFDDSTVTTVDESQVVTRYAYVLFYRRRNSPVERPPRAGHSEHHPDLGPAAEAAASQASRIWQELEAEEEPVPEGSGPLGPWGPQDWVGPLPRGPTTPDEGCLRYFVLGTVAALVALVLNVFYPLVSQSRWR

binding [2]: binds
B3: Flag-TM4 (protein, UniProt Q8NBM4 36-344)
chain: HCQKLFVYDLHAVKNDFQIWRLICGRIICLDLKDTFCSSLLIYNFRIFERRYGSRKFASFLLGSWVLSALFDFLLIEAMQYFFGITAASNLPSGFLAPVFALFVPFYCSIPRVQVAQILGPLSITNKTLIYILGLQLFTSGSYIWIVAISGLMSGLCYDSKMFQVHQVLCIPSWMAKFFSWTLEPIFSSSEPTSEARIGMGATLDIQRQQRMELLDRQLMFSQFAQGRRQRQQQGGMINWNRLFPPLRQRQNVNYQGGRQSEPAAPPLEVSEEQVARLMEMGFSRGDALEALRASNNDLNVATNFLLQH

binding [2]: binds
B4: EGFP-C2-TM4 (protein, UniProt Q8NBM4 36-344)
chain: B3 chain

More lines, now with the values behind:

Molecule: RNF-5 (from UniProt Q99942 1-180)
binding (TM4 (UBAC2)): binds

B2: TM4 (UBAC2), in Hela cells (protein, UniProt Q8NBM4 36-344)
chain: B3 chain
binding [1]: binds
